Source: publication PMC12184535
Results are given in words; binding and its absence hold for the method and conditions named. In cells and extracts the contact can be indirect. Some results given as binding are weak or reduced against the parent protein; the word gives no strength. Sequences can lack the tags named with a protein.

The chains behind the UniProt entries cited, without tags or fusion partners.
UniProt Q04690: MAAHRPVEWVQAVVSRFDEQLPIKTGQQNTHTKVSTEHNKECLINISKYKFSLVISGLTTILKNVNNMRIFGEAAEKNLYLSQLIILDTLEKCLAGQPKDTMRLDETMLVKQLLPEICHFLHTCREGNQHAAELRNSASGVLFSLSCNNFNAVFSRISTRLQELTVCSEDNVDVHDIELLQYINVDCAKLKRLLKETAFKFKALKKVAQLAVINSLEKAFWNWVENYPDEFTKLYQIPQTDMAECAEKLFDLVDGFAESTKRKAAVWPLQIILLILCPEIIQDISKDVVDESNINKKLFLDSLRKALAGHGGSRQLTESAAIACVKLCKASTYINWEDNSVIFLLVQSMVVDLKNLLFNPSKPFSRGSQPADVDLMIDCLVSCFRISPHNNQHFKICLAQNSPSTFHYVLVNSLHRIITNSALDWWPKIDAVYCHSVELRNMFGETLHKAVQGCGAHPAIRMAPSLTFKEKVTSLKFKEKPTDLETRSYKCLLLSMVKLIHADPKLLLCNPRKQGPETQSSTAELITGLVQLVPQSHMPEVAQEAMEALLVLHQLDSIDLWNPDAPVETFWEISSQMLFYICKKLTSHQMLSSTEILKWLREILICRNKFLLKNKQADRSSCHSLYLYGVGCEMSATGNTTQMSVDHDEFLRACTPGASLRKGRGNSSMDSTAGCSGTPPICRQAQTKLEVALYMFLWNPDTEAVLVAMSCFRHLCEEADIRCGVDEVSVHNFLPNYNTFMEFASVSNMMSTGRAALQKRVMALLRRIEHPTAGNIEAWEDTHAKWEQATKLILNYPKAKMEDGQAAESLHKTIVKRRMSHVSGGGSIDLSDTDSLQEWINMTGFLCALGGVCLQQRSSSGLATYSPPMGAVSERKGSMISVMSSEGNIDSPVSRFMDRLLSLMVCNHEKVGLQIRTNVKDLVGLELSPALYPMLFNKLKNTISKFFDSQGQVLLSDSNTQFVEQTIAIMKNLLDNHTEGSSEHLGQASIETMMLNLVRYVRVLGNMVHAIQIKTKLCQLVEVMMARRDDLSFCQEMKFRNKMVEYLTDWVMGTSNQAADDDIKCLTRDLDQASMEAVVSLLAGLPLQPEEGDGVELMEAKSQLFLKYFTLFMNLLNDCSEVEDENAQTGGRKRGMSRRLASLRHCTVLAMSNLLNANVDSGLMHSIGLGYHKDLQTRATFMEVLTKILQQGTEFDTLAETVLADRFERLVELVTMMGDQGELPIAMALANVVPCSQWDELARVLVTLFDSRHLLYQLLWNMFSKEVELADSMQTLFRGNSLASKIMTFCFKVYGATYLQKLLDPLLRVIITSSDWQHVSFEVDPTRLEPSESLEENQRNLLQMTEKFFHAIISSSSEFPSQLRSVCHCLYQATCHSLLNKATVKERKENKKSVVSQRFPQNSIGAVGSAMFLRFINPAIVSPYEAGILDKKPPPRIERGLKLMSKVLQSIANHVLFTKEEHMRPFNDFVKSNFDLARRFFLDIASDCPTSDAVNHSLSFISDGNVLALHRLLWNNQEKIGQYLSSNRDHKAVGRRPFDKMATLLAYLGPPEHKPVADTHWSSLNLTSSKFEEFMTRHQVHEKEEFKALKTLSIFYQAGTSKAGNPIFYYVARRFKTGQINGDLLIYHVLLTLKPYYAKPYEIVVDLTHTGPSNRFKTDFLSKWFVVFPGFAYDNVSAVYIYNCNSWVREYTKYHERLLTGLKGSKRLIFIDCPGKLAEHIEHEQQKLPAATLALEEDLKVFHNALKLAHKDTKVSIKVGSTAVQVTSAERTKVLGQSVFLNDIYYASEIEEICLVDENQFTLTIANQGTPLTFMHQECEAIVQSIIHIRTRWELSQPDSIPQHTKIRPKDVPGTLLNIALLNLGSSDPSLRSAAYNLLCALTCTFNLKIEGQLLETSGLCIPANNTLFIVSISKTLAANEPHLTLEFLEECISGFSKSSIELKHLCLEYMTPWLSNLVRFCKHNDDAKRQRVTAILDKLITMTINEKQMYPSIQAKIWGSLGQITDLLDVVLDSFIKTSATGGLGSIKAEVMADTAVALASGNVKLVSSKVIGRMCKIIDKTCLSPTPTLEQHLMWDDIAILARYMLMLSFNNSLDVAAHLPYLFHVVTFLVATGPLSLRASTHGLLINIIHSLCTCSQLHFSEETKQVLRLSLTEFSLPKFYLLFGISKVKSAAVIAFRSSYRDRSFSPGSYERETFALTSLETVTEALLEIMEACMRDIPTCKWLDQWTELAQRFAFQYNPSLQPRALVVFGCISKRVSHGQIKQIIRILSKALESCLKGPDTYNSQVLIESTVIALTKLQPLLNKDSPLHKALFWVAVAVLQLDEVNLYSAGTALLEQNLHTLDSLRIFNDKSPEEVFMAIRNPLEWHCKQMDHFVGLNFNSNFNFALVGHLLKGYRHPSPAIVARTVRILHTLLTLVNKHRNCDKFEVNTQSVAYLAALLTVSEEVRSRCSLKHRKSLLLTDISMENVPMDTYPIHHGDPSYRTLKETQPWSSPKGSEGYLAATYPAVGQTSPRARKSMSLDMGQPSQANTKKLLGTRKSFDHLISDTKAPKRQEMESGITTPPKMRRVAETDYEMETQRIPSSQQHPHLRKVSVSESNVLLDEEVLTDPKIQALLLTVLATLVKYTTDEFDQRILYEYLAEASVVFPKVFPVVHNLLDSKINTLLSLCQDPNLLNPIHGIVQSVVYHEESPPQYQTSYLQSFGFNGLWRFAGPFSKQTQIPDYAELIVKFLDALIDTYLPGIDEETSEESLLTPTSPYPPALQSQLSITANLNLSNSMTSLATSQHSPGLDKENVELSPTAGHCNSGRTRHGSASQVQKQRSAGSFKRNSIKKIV

Molecular target: T1, glucose transporter-1 (GLUT1) (mouse (endogenous in bone marrow-derived macrophages)) (UniProt P17809)
T1 sequence: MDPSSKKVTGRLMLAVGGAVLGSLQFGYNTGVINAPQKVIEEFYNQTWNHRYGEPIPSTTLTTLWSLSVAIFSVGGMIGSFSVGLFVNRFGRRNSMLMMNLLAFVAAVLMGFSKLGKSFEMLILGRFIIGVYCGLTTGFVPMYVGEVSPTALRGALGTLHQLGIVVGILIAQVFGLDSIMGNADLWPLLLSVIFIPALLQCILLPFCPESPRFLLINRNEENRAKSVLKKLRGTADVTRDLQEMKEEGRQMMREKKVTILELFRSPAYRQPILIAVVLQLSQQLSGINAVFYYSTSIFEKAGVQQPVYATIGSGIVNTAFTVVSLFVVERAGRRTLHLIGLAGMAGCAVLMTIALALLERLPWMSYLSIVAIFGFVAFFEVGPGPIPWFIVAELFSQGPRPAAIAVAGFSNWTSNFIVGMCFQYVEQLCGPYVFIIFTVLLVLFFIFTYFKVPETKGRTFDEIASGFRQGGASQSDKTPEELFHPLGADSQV
Assay: co-IP; anti-GLUT1 antibody (CST 12939) on Dynabeads incubated with lysates (800 ug protein, RIPA buffer) of M-CSF, LPS/IFNγ- or IL-4-polarized bone marrow-derived macrophages of Nf1^f/f mice overnight at 4°C; immune complex blotted with anti-neurofibromin antibody

“neurofibromin (from UniProt Q04690 1-2841)” was tested, and the binding was “binds”.
